Data: the supplement of paper PMC10849652
The other results are listed elsewhere or left out.

Protein sequences, listed by entry. Tags and fused reporters are not part of them. Lines headed by an entry give the natural chain unless they say otherwise; changes in a name come on top.
UniProt O60333: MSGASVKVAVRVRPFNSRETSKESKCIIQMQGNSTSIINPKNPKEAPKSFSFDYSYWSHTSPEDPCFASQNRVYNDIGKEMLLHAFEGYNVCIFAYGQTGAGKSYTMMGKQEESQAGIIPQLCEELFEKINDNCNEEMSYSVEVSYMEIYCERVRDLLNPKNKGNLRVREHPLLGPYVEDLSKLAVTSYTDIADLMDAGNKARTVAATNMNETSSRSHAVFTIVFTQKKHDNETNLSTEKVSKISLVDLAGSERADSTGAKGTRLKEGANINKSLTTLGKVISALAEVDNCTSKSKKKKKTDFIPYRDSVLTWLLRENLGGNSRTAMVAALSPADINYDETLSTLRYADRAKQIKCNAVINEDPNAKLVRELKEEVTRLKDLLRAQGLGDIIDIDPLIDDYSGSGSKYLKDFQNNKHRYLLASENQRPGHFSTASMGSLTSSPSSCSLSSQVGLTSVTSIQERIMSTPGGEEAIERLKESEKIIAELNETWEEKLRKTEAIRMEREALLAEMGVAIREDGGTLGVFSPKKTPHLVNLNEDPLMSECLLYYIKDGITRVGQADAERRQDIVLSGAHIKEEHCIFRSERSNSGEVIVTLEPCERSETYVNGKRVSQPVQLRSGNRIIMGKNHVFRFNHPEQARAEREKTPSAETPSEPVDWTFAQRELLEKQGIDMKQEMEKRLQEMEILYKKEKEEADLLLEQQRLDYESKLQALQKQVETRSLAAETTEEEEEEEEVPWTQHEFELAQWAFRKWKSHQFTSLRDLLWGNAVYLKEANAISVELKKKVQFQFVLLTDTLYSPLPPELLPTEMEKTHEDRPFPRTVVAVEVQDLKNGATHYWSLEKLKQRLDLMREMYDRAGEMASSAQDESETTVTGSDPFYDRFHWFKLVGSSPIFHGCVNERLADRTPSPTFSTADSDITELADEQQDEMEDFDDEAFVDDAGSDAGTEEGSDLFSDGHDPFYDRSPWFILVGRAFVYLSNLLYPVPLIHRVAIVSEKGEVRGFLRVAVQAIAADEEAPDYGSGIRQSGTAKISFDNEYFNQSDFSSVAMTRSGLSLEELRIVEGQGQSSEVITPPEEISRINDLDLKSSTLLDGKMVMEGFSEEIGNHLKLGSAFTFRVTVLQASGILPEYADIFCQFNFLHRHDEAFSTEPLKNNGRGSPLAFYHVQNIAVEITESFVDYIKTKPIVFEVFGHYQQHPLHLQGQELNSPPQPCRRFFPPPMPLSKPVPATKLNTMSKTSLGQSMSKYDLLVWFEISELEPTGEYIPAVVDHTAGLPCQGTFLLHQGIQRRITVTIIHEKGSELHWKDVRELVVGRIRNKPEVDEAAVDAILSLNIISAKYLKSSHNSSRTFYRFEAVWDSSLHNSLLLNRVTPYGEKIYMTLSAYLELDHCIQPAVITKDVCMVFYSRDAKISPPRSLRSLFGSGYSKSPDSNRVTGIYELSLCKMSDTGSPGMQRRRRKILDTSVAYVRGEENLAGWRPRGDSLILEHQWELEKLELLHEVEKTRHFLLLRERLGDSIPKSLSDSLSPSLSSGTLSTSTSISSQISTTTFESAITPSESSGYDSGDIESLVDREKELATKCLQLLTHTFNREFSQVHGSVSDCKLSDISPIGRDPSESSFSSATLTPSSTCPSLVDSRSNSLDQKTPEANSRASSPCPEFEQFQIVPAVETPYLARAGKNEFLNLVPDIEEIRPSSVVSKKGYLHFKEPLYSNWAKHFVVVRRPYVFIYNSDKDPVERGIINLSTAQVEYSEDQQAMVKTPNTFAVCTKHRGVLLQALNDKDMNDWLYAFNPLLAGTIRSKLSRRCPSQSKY
UniProt Q9H1H9: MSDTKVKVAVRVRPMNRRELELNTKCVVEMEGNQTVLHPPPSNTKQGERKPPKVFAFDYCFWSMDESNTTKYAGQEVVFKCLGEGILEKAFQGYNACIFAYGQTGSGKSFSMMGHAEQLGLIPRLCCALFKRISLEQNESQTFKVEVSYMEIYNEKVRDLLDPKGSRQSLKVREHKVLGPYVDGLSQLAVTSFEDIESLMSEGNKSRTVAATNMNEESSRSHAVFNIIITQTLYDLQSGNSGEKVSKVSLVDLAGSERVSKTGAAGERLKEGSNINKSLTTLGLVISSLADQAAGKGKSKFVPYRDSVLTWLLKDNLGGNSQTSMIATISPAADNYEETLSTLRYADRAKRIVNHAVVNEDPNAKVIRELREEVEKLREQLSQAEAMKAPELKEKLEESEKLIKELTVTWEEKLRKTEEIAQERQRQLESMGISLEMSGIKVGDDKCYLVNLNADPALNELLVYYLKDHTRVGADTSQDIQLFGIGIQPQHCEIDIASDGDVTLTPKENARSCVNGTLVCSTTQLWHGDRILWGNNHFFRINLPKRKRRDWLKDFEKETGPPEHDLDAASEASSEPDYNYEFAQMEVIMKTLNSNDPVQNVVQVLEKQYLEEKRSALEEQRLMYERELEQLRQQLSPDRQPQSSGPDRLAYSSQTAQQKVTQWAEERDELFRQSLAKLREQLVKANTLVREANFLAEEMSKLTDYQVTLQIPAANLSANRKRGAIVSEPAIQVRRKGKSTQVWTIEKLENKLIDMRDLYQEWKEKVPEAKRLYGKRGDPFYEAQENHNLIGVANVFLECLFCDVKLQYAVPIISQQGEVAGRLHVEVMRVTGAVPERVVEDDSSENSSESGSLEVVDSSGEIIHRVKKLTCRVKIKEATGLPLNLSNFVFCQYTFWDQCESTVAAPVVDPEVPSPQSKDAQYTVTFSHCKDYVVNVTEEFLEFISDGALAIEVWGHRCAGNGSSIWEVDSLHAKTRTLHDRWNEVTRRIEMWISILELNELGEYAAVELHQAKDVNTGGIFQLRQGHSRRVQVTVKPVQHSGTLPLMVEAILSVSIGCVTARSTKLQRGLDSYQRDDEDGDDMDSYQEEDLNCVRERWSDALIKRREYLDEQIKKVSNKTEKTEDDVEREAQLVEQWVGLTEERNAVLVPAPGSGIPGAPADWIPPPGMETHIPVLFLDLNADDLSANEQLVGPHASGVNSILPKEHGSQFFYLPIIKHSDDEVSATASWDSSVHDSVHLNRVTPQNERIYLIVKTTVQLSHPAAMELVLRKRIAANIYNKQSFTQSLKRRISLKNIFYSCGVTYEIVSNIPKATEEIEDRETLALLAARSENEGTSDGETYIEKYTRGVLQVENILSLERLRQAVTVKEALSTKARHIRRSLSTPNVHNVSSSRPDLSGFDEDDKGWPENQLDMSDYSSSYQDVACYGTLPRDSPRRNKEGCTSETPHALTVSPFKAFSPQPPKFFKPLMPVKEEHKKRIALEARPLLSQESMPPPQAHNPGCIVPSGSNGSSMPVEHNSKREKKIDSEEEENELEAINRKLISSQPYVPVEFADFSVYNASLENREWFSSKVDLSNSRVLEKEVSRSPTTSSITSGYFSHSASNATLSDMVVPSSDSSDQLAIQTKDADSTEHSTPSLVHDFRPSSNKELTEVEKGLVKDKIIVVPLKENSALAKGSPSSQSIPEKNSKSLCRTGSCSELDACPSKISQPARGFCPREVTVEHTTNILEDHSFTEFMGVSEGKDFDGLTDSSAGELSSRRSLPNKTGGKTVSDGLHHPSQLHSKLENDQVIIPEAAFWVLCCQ
UniProt Q14145, whole entry, looked up: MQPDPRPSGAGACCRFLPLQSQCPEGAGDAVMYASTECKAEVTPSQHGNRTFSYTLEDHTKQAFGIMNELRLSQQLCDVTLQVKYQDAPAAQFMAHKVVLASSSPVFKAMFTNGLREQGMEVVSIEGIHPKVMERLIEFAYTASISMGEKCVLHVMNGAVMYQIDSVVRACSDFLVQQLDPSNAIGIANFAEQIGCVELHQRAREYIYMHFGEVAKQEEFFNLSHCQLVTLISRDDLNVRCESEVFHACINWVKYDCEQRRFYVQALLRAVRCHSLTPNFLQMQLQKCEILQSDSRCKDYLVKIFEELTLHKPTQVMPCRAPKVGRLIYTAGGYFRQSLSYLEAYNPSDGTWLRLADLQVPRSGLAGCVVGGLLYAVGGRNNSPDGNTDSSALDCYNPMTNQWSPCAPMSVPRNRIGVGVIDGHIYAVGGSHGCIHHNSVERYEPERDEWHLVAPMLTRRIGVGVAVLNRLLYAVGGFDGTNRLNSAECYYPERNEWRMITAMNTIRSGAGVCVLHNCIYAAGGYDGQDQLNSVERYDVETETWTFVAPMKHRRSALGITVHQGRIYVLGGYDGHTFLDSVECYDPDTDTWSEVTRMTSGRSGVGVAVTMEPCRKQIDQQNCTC
UniProt Q9BY66, whole entry, looked up: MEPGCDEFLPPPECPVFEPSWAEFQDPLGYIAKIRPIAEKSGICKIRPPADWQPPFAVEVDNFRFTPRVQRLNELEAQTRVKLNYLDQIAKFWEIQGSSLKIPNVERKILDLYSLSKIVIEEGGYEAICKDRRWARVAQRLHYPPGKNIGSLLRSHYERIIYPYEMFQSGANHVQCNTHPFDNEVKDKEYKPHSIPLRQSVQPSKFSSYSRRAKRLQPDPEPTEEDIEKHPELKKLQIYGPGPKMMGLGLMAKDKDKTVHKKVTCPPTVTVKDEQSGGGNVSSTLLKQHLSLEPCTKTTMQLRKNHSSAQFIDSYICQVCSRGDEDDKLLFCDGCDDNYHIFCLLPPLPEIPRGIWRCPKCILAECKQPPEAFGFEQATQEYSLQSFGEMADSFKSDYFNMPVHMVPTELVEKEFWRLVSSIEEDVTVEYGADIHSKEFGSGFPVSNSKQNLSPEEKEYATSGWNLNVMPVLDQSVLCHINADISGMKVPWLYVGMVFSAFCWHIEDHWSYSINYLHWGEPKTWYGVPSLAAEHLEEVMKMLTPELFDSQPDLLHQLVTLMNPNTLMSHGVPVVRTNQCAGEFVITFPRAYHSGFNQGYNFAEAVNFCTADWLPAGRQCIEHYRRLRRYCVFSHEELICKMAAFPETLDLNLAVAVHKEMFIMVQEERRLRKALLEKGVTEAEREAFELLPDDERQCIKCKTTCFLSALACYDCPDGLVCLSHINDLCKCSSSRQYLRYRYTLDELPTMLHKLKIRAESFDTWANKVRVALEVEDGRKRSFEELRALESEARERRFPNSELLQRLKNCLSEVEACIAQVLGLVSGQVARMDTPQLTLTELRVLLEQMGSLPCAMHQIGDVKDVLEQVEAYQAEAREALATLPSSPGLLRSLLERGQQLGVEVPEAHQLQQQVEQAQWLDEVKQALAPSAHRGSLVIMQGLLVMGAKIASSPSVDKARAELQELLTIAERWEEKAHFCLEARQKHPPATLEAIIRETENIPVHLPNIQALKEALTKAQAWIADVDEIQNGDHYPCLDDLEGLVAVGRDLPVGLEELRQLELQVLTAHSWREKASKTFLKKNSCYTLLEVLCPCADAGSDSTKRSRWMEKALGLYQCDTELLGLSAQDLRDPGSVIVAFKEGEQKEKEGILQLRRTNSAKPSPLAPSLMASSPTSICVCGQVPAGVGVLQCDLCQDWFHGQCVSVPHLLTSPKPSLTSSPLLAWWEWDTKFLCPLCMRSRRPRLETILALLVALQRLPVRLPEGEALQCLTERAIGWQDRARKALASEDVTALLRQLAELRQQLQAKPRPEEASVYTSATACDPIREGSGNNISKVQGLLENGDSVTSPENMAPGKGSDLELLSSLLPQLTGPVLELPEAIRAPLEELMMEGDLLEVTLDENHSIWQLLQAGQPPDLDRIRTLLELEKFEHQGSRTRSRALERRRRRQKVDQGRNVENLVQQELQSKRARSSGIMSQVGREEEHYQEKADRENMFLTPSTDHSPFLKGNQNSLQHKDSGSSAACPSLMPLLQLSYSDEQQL
UniProt Q99661: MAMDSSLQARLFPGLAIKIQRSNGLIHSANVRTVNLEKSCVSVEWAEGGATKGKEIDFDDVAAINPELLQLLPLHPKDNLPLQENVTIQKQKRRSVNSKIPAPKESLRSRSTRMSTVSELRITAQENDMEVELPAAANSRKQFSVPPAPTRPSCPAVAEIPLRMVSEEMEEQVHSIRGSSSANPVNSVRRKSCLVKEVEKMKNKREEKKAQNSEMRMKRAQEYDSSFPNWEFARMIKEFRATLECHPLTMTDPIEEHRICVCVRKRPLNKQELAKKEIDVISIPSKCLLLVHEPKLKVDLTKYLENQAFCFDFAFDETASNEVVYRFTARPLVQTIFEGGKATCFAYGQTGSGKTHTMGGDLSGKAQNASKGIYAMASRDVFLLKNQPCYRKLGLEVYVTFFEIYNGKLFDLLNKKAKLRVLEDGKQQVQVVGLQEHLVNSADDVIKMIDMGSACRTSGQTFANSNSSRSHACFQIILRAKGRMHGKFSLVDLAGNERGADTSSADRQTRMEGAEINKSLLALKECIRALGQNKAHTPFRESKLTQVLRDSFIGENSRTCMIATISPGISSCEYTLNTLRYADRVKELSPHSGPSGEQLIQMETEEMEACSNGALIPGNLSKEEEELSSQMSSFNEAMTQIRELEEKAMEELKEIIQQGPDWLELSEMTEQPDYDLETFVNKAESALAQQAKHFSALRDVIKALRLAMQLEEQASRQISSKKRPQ

Columns and labels:
Assay in all cases: log2 fold change, soluble protein after heating vs DMSO (PISA); higher = thermal stabilisation; K562 cells, 10 uM, 30 min; active = over 0.2 and 3.5 SD of the protein, either way, in both replicates (recomputed)
[1] = compound: CC1=C(C=C(C=C1)NC(=O)C2=CC(=CC=C2)C(C)(C)C#N)NC3=CC4=C(C=C3)N=CN(C4=O)C
Method in brief: (§1)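 Values are thermal stability changes relative to control samples and are taken from duplicates. They are stated as log2 fold changes. Before quantification by TMTpro 16plex LC-MS/MS with equalised channel sums, K562 cells at 2×10^6 cells/mL were treated with 10 μM compound for 30 min, heated in aliquots for 3 min across 48°C-58°C, pooled, extracted in PBS with 0.5% NP-40 at 4°C, and centrifuged at 21,000xg for 90 min to give the soluble supernatant.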

[2] = compound: CC1=C(C=C(C=C1)NC(=O)C2=CC(=CC=C2)N(C)C)NC(=O)C3=CC=C(C=C3)O
Method in brief: as §1

[3] = compound: CC1=CC=C(C=C1)SC2=C3C=C(SC3=CN=C2)C(=O)N
Method in brief: as §1

[4] = compound: CC1=NC(=CC=C1)C2=C(N=C(N2)C(C)(C)C)C3=CC4=NC=CN=C4C=C3
Method in brief: as §1

[5] = compound: CCCCN(Cc1ccc(C(=O)NO)cc1)C(=O)Nc1ccccc1 [Nexturastat A]
Method in brief: as §1

[6] = compound: CCCS(=O)(=O)Nc1ccc(F)c(C(=O)c2c[nH]c3ncc(-c4ccc(Cl)cc4)cc23)c1F [vemurafenib]
Method in brief: as §1

[7] = compound: CCCS(=O)(=O)Nc1ccc(F)c(C(=O)c2c[nH]c3ncc(Cl)cc23)c1F
Method in brief: as §1

[8] = compound: CCCc1cc(C)[nH]c(=O)c1CNC(=O)c1cc(-c2ccnc(N3CCN(C)CC3)c2)cc2c1cnn2C(C)C
Method in brief: as §1

[9] = compound: CCN(CC)Cc1ccc2cc(COC(=O)Nc3ccc(C(=O)NO)cc3)ccc2c1 [givinostat]
Method in brief: as §1

[10] = compound: CCN(CCCOc1ccc2c(Nc3cc(CC(=O)Nc4cccc(F)c4)[nH]n3)ncnc2c1)CCOP(=O)(O)O [barasertib]
Method in brief: as §1

[11] = compound: CC[C@@H]1C(=O)N(C)c2cnc(Nc3ccc(C(=O)NC4CCN(C)CC4)cc3OC)nc2N1C1CCCC1
Method in brief: as §1

[12] = compound: CC[C@@H]1C(=O)N(C)c2cnc(Nc3ccc(C(=O)N[C@H]4CC[C@H](N5CCN(CC6CC6)CC5)CC4)cc3OC)nc2N1C(C)C [volasertib]
Method in brief: as §1

[13] = compound: CC[C@H](C)N1C=C(C2=C(C=C(C=C21)C3=CN=C(C=C3)N4CCNCC4)C(=O)NCC5=C(C=C(NC5=O)C)C)C
Method in brief: as §1

[14] = compound: CC[C@H](C)[C@@H](C(=O)N[C@@H]([C@@H](C)O)C(=O)N[C@@H](CC(C)C)C(=O)[C@]1(CO1)C)NC(=O)[C@H]([C@@H](C)CC)N(C)C(=O)C [epoxomicin]
Method in brief: as §1

[15] = compound: CCn1cc(-c2ccnc3[nH]c(-c4cccc(CN(C)C)c4)cc23)c(-c2ccc(NC(=O)N(C)C)cc2)n1
Method in brief: as §1

[16] = compound: CN(C)CC(=O)Nc1ccc2[nH]c(=O)c3ccccc3c2c1
Method in brief: as §1

[17] = compound: CN1C2=C(C3=C1C(=O)N(N=C3)CC4=CC(=CC=C4)N)SC(=C2)S(=O)C
Method in brief: as §1

[18] = compound: CN1CCC(CNc2ccc3ncc(-c4cccc(OC(F)(F)F)c4)n3n2)CC1
Method in brief: as §1

[19] = compound: CCn1c(C(=O)N(C2CC2)C2CC2)cc2c3c(ncn3C)c(Nc3cc(C)n(C)n3)nc21
Method in brief: as §1

[20] = compound: CN(CCOC1=CC=C(C=C1)C[C@H]2C(=O)NC(=O)S2)C3=CC=CC=N3 (racemic) [rosiglitazone]
Method in brief: as §1

Measured: log2 fold change

KIFBP (UniProt Q96EK5)
inactive: [1] 0.019 | [2] 0.034 | [3] 0.052 | [4] 0.027 | [5] -0.107 | [6] 0.067 | [7] 0.093 | [8] -0.013 | [9] -0.004 | [10] 0.022 | [11] -0.007 | [13] 0.11 | [14] -0.035 | [15] 0.017 | [16] 0.038 | [17] 0.095 | [18] -0.046
active: [12] -0.333

KNTC1 (UniProt P50748)
active: [12] -0.504
inactive: [1] -0.027 | [2] -0.003 | [3] -0.021 | [4] 0.026 | [5] 0.034 | [6] 0.042 | [7] 0.036 | [8] 0.092 | [9] 0.082 | [10] 0.035 | [11] -0.255 | [13] 0.022 | [14] 0.016 | [15] -0.007 | [16] 0.037 | [17] 0.027 | [18] -0.219

KIF1B isoform 4 (UniProt O60333)
active: [18] -0.299
inactive: [1] -0.07 | [2] 0.058 | [3] 0.008 | [4] 0.024 | [5] 0.024 | [6] 0.002 | [7] 0.043 | [8] 0.018 | [9] 0.122 | [10] 0.073 | [11] -0.042 | [12] -0.11 | [13] 0.052 | [14] 0.039 | [15] -0.005 | [16] 0.123 | [17] -0.001

KCMF1 (UniProt Q9P0J7)
inactive: [1] -0.059 | [2] 0.02 | [3] -0.043 | [4] -0.02 | [5] 0.127 | [6] -0.135 | [7] 0.203 | [8] 0.002 | [9] 0.016 | [10] -0.086 | [11] -0.098 | [12] 0.004 | [13] 0.065 | [14] -0.032 | [19] -0.106 | [15] -0.007 | [16] 0.012 | [20] -0.011 | [18] 0.214

KDM3B (UniProt Q7LBC6)
inactive: [1] 0.024 | [2] -0.041 | [3] -0.032 | [4] 0.037 | [5] -0.045 | [6] 0.049 | [7] 0.031 | [8] 0.041 | [9] -0.001 | [10] 0.082 | [11] -0.164 | [13] 0.06 | [14] 0.061 | [15] 0.001 | [16] 0.043 | [17] -0.049 | [18] -0.071
active: [12] -0.349

KMT2D isoform 3 (UniProt O14686)
inactive: [1] -0.102 | [2] -0.052 | [3] -0.066 | [4] -0.032 | [5] -0.124 | [6] 0.009 | [7] 0.006 | [8] -0.052 | [9] -0.143 | [10] 0.072 | [11] 0.151 | [12] -0.068 | [13] 0.024 | [14] 0.009 | [19] -0.04 | [15] 0.029 | [16] -0.119 | [20] -0.009 | [17] 0.093 | [18] 0.007

KLC2 (UniProt Q9H0B6)
inactive: [1] 0.025 | [2] -0.055 | [3] 0.021 | [4] 0.015 | [5] 0.001 | [6] 0.012 | [7] 0.096 | [8] 0.001 | [9] 0.044 | [10] 0.006 | [11] -0.03 | [12] -0.059 | [13] 0.038 | [14] 0.015 | [15] 0.02 | [16] -0.003 | [17] -0.013 | [18] -0.131

KIF13A (UniProt Q9H1H9)
inactive: [1] -0.005 | [2] 0.021 | [3] -0.005 | [4] -0.004 | [5] 0.018 | [6] -0.045 | [7] 0.04 | [8] -0.005 | [9] -0.021 | [10] -0.009 | [11] 0.007 | [12] -0.041 | [13] -0.003 | [14] 0.004 | [15] -0.068 | [16] -0.026 | [17] -0.012 | [18] 0.039

KPNA6 (UniProt O60684)
active: [12] -0.699
inactive: [1] -0.06 | [2] -0.02 | [3] -0.014 | [4] -0.063 | [5] 0.156 | [6] -0.09 | [7] 0.078 | [8] 0.068 | [9] 0.018 | [10] 0.047 | [11] -0.225 | [13] 0.04 | [14] 0.021 | [15] 0.043 | [16] 0.063 | [17] 0.227 | [18] -0.184

Fetched one by one from the entries so far, 2 records:
KIF1B isoform 4 (UniProt O60333)
active: [18] -0.299
inactive: [1] -0.07 | [2] 0.058 | [3] 0.008 | [4] 0.024 | [5] 0.024 | [6] 0.002 | [7] 0.043 | [8] 0.018 | [9] 0.122 | [10] 0.073 | [11] -0.042 | [12] -0.11 | [13] 0.052 | [14] 0.039 | [15] -0.005 | [16] 0.123 | [17] -0.001

KPNA6 (UniProt O60684)
active: [12] -0.699
inactive: [1] -0.06 | [2] -0.02 | [3] -0.014 | [4] -0.063 | [5] 0.156 | [6] -0.09 | [7] 0.078 | [8] 0.068 | [9] 0.018 | [10] 0.047 | [11] -0.225 | [13] 0.04 | [14] 0.021 | [15] 0.043 | [16] 0.063 | [17] 0.227 | [18] -0.184

The list goes on.

KEAP1 (UniProt Q14145)
inactive: [1] -0.024 | [2] 0.032 | [3] 0.005 | [4] -0.009 | [5] 0.038 | [6] 0.054 | [7] 0.101 | [8] 0.004 | [9] 0.034 | [10] 0.082 | [11] -0.026 | [13] -0.034 | [14] -0.024 | [15] 0.019 | [16] 0.033 | [17] 0.056 | [18] 0.053
active: [12] -0.357

KPNA4 (UniProt O00629)
inactive: [1] 0.016 | [2] 0.007 | [3] 0.017 | [4] 0.045 | [5] -0.008 | [6] 0.031 | [7] 0.038 | [8] 0.023 | [9] 0.006 | [10] 0.007 | [11] -0.008 | [12] -0.251 | [13] 0.033 | [14] -0.008 | [15] 0.029 | [16] 0 | [17] -0.066 | [18] -0.052

KBTBD2 (UniProt Q8IY47)
inactive: [1] -0.031 | [2] -0.002 | [3] 0.006 | [4] 0.026 | [5] -0.117 | [6] -0.021 | [7] 0.002 | [8] -0.006 | [9] -0.044 | [10] 0.082 | [11] -0.029 | [12] -0.118 | [13] -0.031 | [14] 0.017 | [19] -0.026 | [15] -0.006 | [16] 0.006 | [20] 0.061 | [17] -0.051 | [18] -0.027

KLHDC4 (UniProt Q8TBB5)
inactive: [1] -0.027 | [2] -0.003 | [3] -0.007 | [4] -0.092 | [5] 0.18 | [6] 0.096 | [7] 0.076 | [8] -0.223 | [9] -0.011 | [10] 0.028 | [11] 0.091 | [12] -0.342 | [13] 0.012 | [14] -0.026 | [15] -0.064 | [16] 0.065 | [17] 0.075 | [18] 0.158

KHDC4 (UniProt Q7Z7F0)
inactive: [1] -0.008 | [2] -0.055 | [3] 0.026 | [4] 0.071 | [5] 0.068 | [6] 0.113 | [7] 0.017 | [8] 0.038 | [9] 0.048 | [10] 0.049 | [11] -0.063 | [13] 0.107 | [14] 0.036 | [15] -0.057 | [16] 0.137 | [17] 0.071 | [18] -0.014
active: [12] -0.236

KDM5D isoform 3 (UniProt Q9BY66)
inactive: [1] -0.132 | [2] -0.144 | [3] 0.036 | [4] 0.039 | [5] -0.08 | [6] 0.003 | [7] 0.128 | [8] -0.004 | [9] 0.014 | [10] 0.108 | [11] -0.305 | [12] -0.404 | [13] 0.032 | [14] 0.163 | [15] 0.034 | [16] 0.223 | [17] -0.14 | [18] -0.059

KIF2C (UniProt Q99661)
active: [12] -0.357
inactive: [1] 0.012 | [2] -0.038 | [3] 0.057 | [4] 0.067 | [5] 0.02 | [6] 0.087 | [7] 0.053 | [8] 0.03 | [9] 0.016 | [10] 0.053 | [11] -0.037 | [13] 0.084 | [14] 0.019 | [15] -0.063 | [16] 0.09 | [17] 0.003 | [18] -0.06

KIF3A (UniProt Q9Y496)
inactive: [1] -0.041 | [2] -0.013 | [3] -0.076 | [4] 0 | [5] 0.029 | [6] -0.002 | [7] 0.062 | [8] 0.045 | [9] 0.074 | [10] -0.041 | [11] 0.036 | [12] -0.039 | [13] -0.187 | [14] 0.068 | [15] -0.093 | [16] 0.032 | [17] -0.023 | [18] -0.162
